The nature of this data set: Parallel artificial membrane permeability assay (PAMPA). The following applies: pH 7.4, read-out: PAMPA Pe. The data set is classed as in vitro ADME. How it is done:
Immediately, at time zero, then at 3, 6, 9, 15 and 30 min an aliquot (50 μL) of the incubation mixture was removed and mixed with acetonitrile (100 μL) to stop the reaction. Internal standard was added to all samples, the samples centrifuged to sediment precipitated protein and the plates then sealed prior to UPLC-MS/MS analysis using a Quattro Premier XE (Waters Corporation, USA). XLfit (IDBS, UK) was used to calculate the exponential decay and consequently the rate constant (k) from the ratio of peak area of test compound to internal standard at each timepoint. The rate of intrinsic clearance (CLi) of each test compound was then calculated using the following calculation: CLi (mL/min/g liver) = k x V x Microsomal protein yield Where V (mL/mg protein) is the incubation volume/mg protein added and microsomal protein yield is […] Verapamil (0.5 μM) was used as a positive control to confirm acceptable assay performance. Experiments were performed using a single time-course experiment. […] All samples were analysed by UPLC-MS/MS on a Quattro Premier XE Mass Spectrometer (Waters Corporation, USA). The unbound fraction was determined as the ratio of the peak area in buffer to that in plasma. […] The effective permeability, Pe, of the compound was measured at […] […] Pe was calculated as shown in the below equation: […]
(In general: PAMPA measures passive passage across an artificial lipid membrane.)

This note sets out measurements from publication PMC5108032, “Discovery of a Quinoline-4-carboxamide Derivative with a Novel Mechanism of Action, Multistage Antimalarial Activity, and Potent in Vivo Efficacy” (Journal of Medicinal Chemistry, 2016).

As to `CC(C)NCC(O)COc1ccc(CC(N)=O)cc1` (stereo not shown) [atenolol, reference compound], the Papp at 5 h, 10 µM was found to be 0.07 ×10⁻⁶ cm/s.
